From patent US20250034197A1, “NUCLEOSIDE-DIPHOSPHATE-HEPTOSE COMPOUNDS FOR TREATING CONDITIONS ASSOCIATED WITH ALPK1 ACTIVITY” (PYROTECH (BEIJING) BIOTECHNOLOGY CO., LTD., priority 2021, published 2025)

Amino acid sequences for entries named in this document (tags omitted).
UniProt Q96QP1, whole entry: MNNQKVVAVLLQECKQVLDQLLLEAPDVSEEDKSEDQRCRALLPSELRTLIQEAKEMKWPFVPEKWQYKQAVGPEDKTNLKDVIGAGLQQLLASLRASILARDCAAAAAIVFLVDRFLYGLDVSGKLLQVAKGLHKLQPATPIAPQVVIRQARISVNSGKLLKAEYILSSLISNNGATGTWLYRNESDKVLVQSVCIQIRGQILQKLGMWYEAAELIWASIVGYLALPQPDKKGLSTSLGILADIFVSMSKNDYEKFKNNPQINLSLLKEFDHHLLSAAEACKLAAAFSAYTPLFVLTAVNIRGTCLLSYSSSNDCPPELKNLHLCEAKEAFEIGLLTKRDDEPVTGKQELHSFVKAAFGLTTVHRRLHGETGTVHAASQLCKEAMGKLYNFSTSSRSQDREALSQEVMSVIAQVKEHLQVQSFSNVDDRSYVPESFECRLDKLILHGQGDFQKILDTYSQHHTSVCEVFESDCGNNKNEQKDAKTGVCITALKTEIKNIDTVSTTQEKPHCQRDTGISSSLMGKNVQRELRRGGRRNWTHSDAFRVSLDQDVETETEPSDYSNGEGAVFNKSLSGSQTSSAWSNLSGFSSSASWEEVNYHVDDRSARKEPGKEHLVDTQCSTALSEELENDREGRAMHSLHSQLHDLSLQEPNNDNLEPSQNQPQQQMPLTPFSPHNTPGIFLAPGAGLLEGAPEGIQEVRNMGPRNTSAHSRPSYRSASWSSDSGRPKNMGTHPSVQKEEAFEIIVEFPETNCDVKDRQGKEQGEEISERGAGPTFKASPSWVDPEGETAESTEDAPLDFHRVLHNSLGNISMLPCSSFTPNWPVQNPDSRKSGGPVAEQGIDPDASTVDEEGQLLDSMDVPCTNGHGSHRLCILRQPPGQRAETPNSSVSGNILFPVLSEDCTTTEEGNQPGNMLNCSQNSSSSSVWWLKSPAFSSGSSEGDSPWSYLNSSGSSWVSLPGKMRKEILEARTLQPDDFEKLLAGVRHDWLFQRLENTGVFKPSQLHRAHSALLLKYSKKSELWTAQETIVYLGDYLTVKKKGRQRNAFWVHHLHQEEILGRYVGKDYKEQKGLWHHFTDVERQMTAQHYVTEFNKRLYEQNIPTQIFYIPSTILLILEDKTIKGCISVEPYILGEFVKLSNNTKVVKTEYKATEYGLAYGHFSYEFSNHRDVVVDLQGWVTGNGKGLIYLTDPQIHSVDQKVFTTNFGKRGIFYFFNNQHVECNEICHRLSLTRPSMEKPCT

Target: ALPK1 (Homo sapiens, UniProt Q96QP1)
Assay: NF-κB luciferase reporter assay in 293T cells (cellular assay)
Conditions: read-out: Activity on Cellular Assay (EC50)
Procedure: The compounds disclosed herein activate NF-κB through ALPK1-TIFA axis as determined by the NF-κB luciferase reporter and TIFA phosphorylation. For NF-κB luciferase assay, the plasmids (pNL2.2-BII-5RE-Luc), and control vector (pRL-TK) were transfected into 293T cells with the Jetprime reagents (Polyplus). NF-κB luciferase activity was determined using the dual luciferase assay kit (Promega) according to the manufacturer's instructions. TIFA phosphorylation upon the treatment with the compounds disclosed herein described in Table 1, were assayed with immunoblotting. Briefly, for the immunoblotting assay, the 293T cells were seeded in 12-well-plates and cultured for 16 h, and treated with indicated compounds for another 2 hours. Subsequently, the cells were collected and sampled as the regular western-blotting method, immunoblotted by the TIFA phosphorylation specific antibody (ab214815, Abcam).
The EC50 of the compounds disclosed herein were determined by the NF-κB luciferase reporter assay using 293T cells described supra. Compounds with indicated concentrations were added to the culture medium of 293T and the NF-κB luciferase activity was determined using the dual luciferase assay kit (Promega) according to the manufacturer's instructions. […] These chemical entities induce strong activation of the immune regulator NF-κB.

For `CC(=O)OC[C@H](OC(C)=O)C1OC(OP(=O)(O)OP(=O)(O)OC[C@H]2O[C@@H](n3cnc4c(N)ncnc43)[C@H](N(C)C)[C@@H]2O)C(OC(C)=O)C(OC(C)=O)C1OC(C)=O` (some centres unmarked), the EC50 was 198 nM.
`C=C[C@@]1(O)[C@H](O)[C@@H](COP(=O)(O)OP(=O)(O)OC2OC([C@H](COC(C)=O)OC(C)=O)C(OC(C)=O)C(OC(C)=O)C2OC(C)=O)O[C@H]1n1cnc2c(N)ncnc21` (some centres unmarked) gave an EC50 of 68.3 nM.

Structures were worked out from names or drawings and are uncertain.
